These are yes or no findings as the source states them, for the method shown. For part of these data: Binding can be weak; no strength is given. For part of these data: Binding seen in cells or lysates may run through a third protein. For part of these data: Where a sequence is shown, tags or fusion partners need not be part of it.

The target of assay [1] is T1, His-tagged HliD (Synechocystis sp. PCC 6803) (UniProt P72932).
T1 sequence: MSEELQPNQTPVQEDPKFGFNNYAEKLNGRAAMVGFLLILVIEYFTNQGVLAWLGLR
The assay can be described thus: pull-down; His-HliD and His-^Δ11HliD isolated by nickel-affinity chromatography from HL-treated cells (2 h); ChlG, HliD and Ycf39 in the eluates by immunodetection after SDS-PAGE; WT control elution.

Assay [2] deals with T2, Truncated His-tagged HliD lacking the first 11 residues (Synechocystis sp. PCC 6803) (UniProt P72932).
T2 sequence: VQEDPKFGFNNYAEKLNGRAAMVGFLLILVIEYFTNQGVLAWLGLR
Described as above.

Assay [3] has as its target T3, High-light-inducible protein D (native) (Synechocystis sp. PCC 6803 (endogenous in Synechocystis)) (UniProt P72932).
T3 sequence: T1 sequence
Briefly: negative-stain single-particle electron microscopy; complexes of the f.ChlG pulldown (f.chlG/ΔchlG/ΔhliC strain) eluted from CN gel bands, 2% uranyl acetate; 2D class averages fitted with AlphaFold3/MD models.

Assay [4] deals with T3, High-light-inducible protein D (native) (Synechocystis sp. PCC 6803 (endogenous in Synechocystis)). The assay can be described thus: native gel or EMSA; 2D BN/SDS-PAGE (4-14% BN) of solubilised membrane proteins from WT, ΔhliD, Δycf39, ΔhliC and his-^Δ11hliD cells grown under NL or shifted to HL (1-16 h); immunoblot with anti-ChlG and anti-Ycf39. In general terms: In EMSA bound probe runs differently from free probe, usually more slowly.

For assay [5], the target named is T2, Truncated His-tagged HliD lacking the first 11 residues (Synechocystis sp. PCC 6803). Described as above.
The target of assay [6] is T3, High-light-inducible protein D (native) (Synechocystis sp. PCC 6803 (endogenous in Synechocystis)). Briefly: co-IP; f.ChlG isolated with anti-FLAG resin from membranes solubilised with 1% n-dodecyl-β-D-maltoside and 1% glycol-diosgenin; eluate resolved by 2D CN (A8-35 amphipol)/SDS-PAGE, CBB stain; strains f.chlG/ΔchlG (HL 2 h), f.chlG/ΔchlG/ΔhliC (HL 2 h), f.chlG/ΔchlG/ΔhliC/Δycf39 (NL).

With Ycf39 (native), the binding result is “binds” in assay [1]; “no binding” in assay [2]; “binds” in assay [3]; “binds” in assay [4]; “no binding” in assay [5]; “binds” in assay [6].

The values above are taken from PMC12142464, “High-light-inducible proteins control associations between chlorophyll synthase and the Photosystem II biogenesis factor Ycf39” (Plant Physiology, 2025).
